# Data as given in PubChem BioAssay AID1487 (National Center for Advancing Translational Sciences (NCATS), 2009).
# Where “and” joins values, the source holds several entries; their conditions need not be identical. Equal entries are not always repeated. The list shows a part of the results. Shown are side measurements of this screen, not its main read-out; they come without a call. Most of these compounds were active or inconclusive in the main read-out, so they are no random draw. The note in brackets gives the kind of curve behind each potency; many fits are weak.
# Test: qHTS Assay for Modulators of Lamin A Splicing
# Conditions: HeLa LMNA splicing GFP/RFP minigene ratio, 48 h
# Procedure, shortened: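 Read-out is the ratio of GFP to DsRed2 object intensity, acquired by 488 nm laser-scanning cytometry on HeLa lamin A-EGFP minigene reporter cells. Compound incubation 48 hrs at 37 °C in Opti-MEM with 2% FBS; DMSO 0.5% final.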
# [1] = measured here: RFP viability control channel
# [2] = measured here: GFP splicing reporter channel
structure (smiles),measurement,setting,value
O=C(CNC(=O)c1ccccc1)N/N=C/c1ccc([N+](=O)[O-])o1,AC50,[1],"35.5 µM [rising, single point]"
Cc1cc(C)c(S(=O)(=O)NCC(c2cccs2)S(=O)(=O)c2ccccc2)c(C)c1 (centres undefined),AC50,[1],"35.5 µM [rising, single point]"
Cc1ccc(C(=O)NNC(=S)NC(=O)c2ccc(Cl)cc2)cc1,AC50,[2],"35.5 µM [rising, single point]"
CCOc1cc(CNCC(C)C)c(Cl)cc1OCC(=O)Nc1ccccc1,AC50,[2],"0.708 µM [falling, full curve, poor fit]"
CCOC(=O)c1c(O)c2c([nH]c1=O)CCCC2,AC50,[2],"3.16 µM [falling, single point]"
same,AC50,[1],"4.47 µM [falling, partial curve]"
Cc1ccc(NCc2nc3ccccc3n2CCOc2ccccc2)cc1,AC50,[1],"31.6 µM [rising, single point]"
Cc1cc(NC(=O)Nc2nc3c(s2)CCCCCC3)ccc1Br,AC50,[2],"11.2 µM [falling, partial curve]"
same,AC50,[1],"12.6 µM [falling, partial curve]"
CCCOc1cccc(C(=O)Nc2cccc(NC(=O)c3ccco3)c2)c1,AC50,[1],"12.6 µM [rising, single point]"
COc1ccc(OC)c(NC(=O)c2cnc(Nc3ccccc3OC)c3ccccc23)c1,AC50,[2],"17.8 µM [rising, single point]"
same,AC50,[1],"17.8 µM [rising, partial curve]"
Cc1ccc(/C=C/C(=O)c2cc(Br)ccc2OC(=O)c2ccco2)cc1,AC50,[1],"3.55 µM [rising, single point]"
O=C(c1ccc(OCCN2CCCCC2)cc1)c1c(-c2ccc(O)cc2)sc2cc(O)ccc12,AC50,[2],"7.94 µM [falling, partial curve, poor fit] and 12.6 µM [falling, partial curve]"
same,AC50,[1],"355 nM [falling, full curve, poor fit] and 12.6 µM [falling, partial curve, poor fit]"
COc1cccc(-c2nccc(-n3ccnc3)n2)c1,AC50,[1],"11.2 µM [rising, single point]"
O=C1c2ccccc2-c2n[nH]c3cccc1c23,AC50,[2],"0.00447 µM [falling, full curve, poor fit]"
same,AC50,[1],"0.00501 µM [falling, full curve, poor fit]"
Cc1nc(-c2ccccc2)sc1CCNS(=O)(=O)c1ccc(Br)cc1,AC50,[2],"35.5 µM [falling, single point]"
same,AC50,[1],"31.6 µM [falling, partial curve, poor fit]"
Cc1ccc(C(=O)Nc2ccccc2N2CCN(C(=O)C(C)C)CC2)cc1C,AC50,[2],"35.5 µM [rising, single point]"
same,AC50,[1],"31.6 µM [rising, single point]"
O=C(c1ccc(C#CC2(O)CCCCC2)cc1)N1CCN(Cc2ccccc2)CC1,AC50,[1],"17.8 µM [rising, single point]"
CCn1nc(C)c(CCN(C)C(=O)Nc2cc(Cl)ccc2C)c1C,AC50,[2],"0.447 µM [rising, partial curve, poor fit]"
same,AC50,[1],"0.0447 µM [rising, full curve]"
CCc1ccccc1NC1=NCC(=O)N1C1CCCCC1,AC50,[1],"0.00447 µM [falling, full curve, poor fit]"
Nc1nn(S(=O)(=O)c2ccccc2)cc1-c1ccc([N+](=O)[O-])cc1,AC50,[2],"15.8 µM [rising, single point]"
same,AC50,[1],"17.8 µM [rising, single point]"
CN(C)c1nc2c(Br)c(Br)c(Br)c(Br)c2[nH]1,AC50,[2],"2.82 µM [falling, full curve]"
same,AC50,[1],"3.16 µM [falling, full curve]"
CCN(Cc1ccccc1)C(c1cc2cc(C)cc(C)c2[nH]c1=O)c1nnnn1CCOC (centres undefined),AC50,[2],"6.31 µM [rising, partial curve]"
Cc1sc(=NC(=O)c2ccco2)n(C)c1-c1ccc(Cl)cc1,AC50,[2],"12.6 µM [rising, partial curve, poor fit]"
same,AC50,[1],"28.2 µM [rising, partial curve, poor fit]"
O=C(c1cn(-c2ccccc2)nc1-c1cc2ccccc2oc1=O)N1CCOCC1,AC50,[1],"2 µM [rising, single point]"
O=C(NC(Cc1c[nH]c2ccccc12)C(=O)N/N=C/c1cccc2ccccc12)c1cccs1 (centres undefined),AC50,[1],"1.12 µM [rising, full curve, poor fit]"
CCCn1nc(Oc2nc(NCC)nc(NCC)n2)ccc1=O,AC50,[2],"10 µM [falling, partial curve, poor fit]"
COc1ccc(OC)c(CCNC(=O)Cn2ncc3c([nH]c4ccccc43)c2=O)c1,AC50,[2],"0.0355 µM [rising, full curve, poor fit]"
Cc1cc(NC(=O)NC2(C(F)(F)F)Oc3ccc(Cl)cc3O2)no1 (centres undefined),AC50,[1],"12.6 µM [rising, partial curve]"
NNc1ncnc2c1cnn2-c1ccccc1,AC50,[1],"35.5 µM [rising, single point]"
Cc1cccc(C)c1OCC(O)Cn1c2ccccc2c2ccccc21 (centres undefined),AC50,[2],"35.5 µM [rising, single point]"
same,AC50,[1],"35.5 µM [rising, single point]"
O=C(N/C(=C/C=C\c1ccccc1)C(=O)N1CCOCC1)c1ccc(Br)cc1,AC50,[2],"11.2 µM [falling, partial curve]"
same,AC50,[1],"14.1 µM [falling, partial curve, poor fit]"
O=C(COc1ccc(Cl)cc1)NCc1nnc(SCC(=O)NC2CCCCC2)o1,AC50,[1],"12.6 µM [rising, single point]"
O=C(N/N=C/c1ccc(F)cc1)c1sccc1OCc1ccc(F)cc1,AC50,[2],"35.5 µM [rising, single point]"
CC(C)c1ccc(OCC(=O)Nc2cccc3c2CCCC3)cc1,AC50,[2],"20 µM [rising, single point]"
same,AC50,[1],"25.1 µM [rising, partial curve]"
CCCn1c(C)nc2c(c1=O)c1nc3ccccc3nc1n2CCC1=CCCCC1,AC50,[2],"35.5 µM [falling, single point]"
same,AC50,[1],"35.5 µM [falling, single point]"

# Given with tabs: part of the list above.
structure (smiles)	measurement	setting	value
Cc1ccc(NCc2nc3ccccc3n2CCOc2ccccc2)cc1	AC50	[1]	31.6 µM [rising, single point]
Cc1cc(NC(=O)Nc2nc3c(s2)CCCCCC3)ccc1Br	AC50	[2]	11.2 µM [falling, partial curve]
same	AC50	[1]	12.6 µM [falling, partial curve]
